# Reference: patent US6358961B1, “Farnesyltransferase inhibiting quinazolinones” (Jannsen-Cilag S.A., priority 1997, dated 2002)
# Some results were stated once for a whole list of compounds, not compound by compound. For at least one compound, name, drawing or mass did not settle the structure.
# System: NIH 3T3 cells transformed by the T24 activated human H-ras gene
# Test: Ras-Transformed Cell Phenotype Reversion Assay
# Assay type: cell-based, mouse
# Details: cell counts after 72 hours proliferation; test concentrations 5, 10, 50, 100 and 500 nM
# Text: “Ras-Transformed Cell Phenotype Reversion Assay”
# Insertion of activated oncogenes such as the mutant ras gene into mouse NIH 3T3 cells converts the cells to a transformed phenotype, The cells become tumorigenic, display anchorage independent growth in semi-solid medium and lose contact inhibition. Loss of contact inhibition produces cell cultures which no longer form uniform monolayers. Rather, the cells pile up into multicellular nodules and grow to very high saturation densities in plastic tissue culture dishes. Agents such as protein famesyl transferase inhibitors which revert the ras transformed phenotype restore the uniform monolayer growth pattern to cells in culture. This reversion is easily monitored by counting the number of cells in tissue culture plates. Transformed cells will achieve higher cell numbers than cells which have reverted to an untransformed phenotype. Compounds which revert the transformed phenotype should produce antitumor effects in tumors bearing ras gene mutations.
# Compounds are screened in tissue culture in NIH 3T3 cells transformed by the T24 activated human H-ras gene. […] Then the cells are detached in 1.0 ml trypsin-EDTA cell dissociation medium and counted on a Coulter particle counter.
# Cell numbers expressed as cells per well are measured using a Coulter Particle Counter. […]
smiles,measurement,value
"Cn1cncc1C(N)(c1ccc(Cl)cc1)c1ccc2c(c1)c(-c1cccc(Cl)c1)nc(=O)n2C (racemic) [Compound 7, (±)-6-[amino(4-chlorophenyl)(1-methyl-1H-imidazol-5-yl)methyl]-4-(3-chlorophenyl)-1-methyl-2(1H)-quinazolinione]",IC50,< 0.5 µM
